From paper PMC4587574
These are yes or no findings as the source states them, for the method shown. Binding seen in cells or lysates may run through a third protein. Some binding calls cover weakened binding; strength is not graded here. Sequences can lack the tags named with a protein.

By UniProt entry, the sequences of proteins in these tests, tags left out.
UniProt Q9WUD1: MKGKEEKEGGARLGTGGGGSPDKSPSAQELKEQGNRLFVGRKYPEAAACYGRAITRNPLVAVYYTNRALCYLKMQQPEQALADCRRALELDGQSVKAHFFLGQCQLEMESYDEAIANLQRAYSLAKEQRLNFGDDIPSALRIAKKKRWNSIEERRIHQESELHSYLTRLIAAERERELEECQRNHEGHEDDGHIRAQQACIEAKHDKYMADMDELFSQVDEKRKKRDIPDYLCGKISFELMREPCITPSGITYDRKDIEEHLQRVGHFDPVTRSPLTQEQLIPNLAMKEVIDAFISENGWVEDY

T1: GFP-tagged A17-PABPN1 (UniProt Q86U42)
T1 sequence: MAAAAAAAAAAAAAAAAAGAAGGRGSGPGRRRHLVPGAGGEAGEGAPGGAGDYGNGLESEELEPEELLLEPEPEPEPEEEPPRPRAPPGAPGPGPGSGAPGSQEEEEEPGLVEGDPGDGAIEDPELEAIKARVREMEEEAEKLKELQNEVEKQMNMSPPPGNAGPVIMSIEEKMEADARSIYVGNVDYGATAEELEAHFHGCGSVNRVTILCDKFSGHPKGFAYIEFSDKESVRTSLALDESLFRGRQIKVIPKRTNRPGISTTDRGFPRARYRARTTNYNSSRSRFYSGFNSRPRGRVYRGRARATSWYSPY


How the values were obtained:
GFP-tagged A17-PABPN1 = molecular target: T1, GFP-tagged A17-PABPN1; experiment: co-IP; A17-PABPN1-expressing C2C12 myoblasts treated with 17-AAG for the indicated times; lysates precipitated with anti-GFP antibody
Myc-tagged CHIP (mouse) = Myc-tagged CHIP (mouse) (UniProt Q9WUD1); experiment: co-IP; HEK293 cells co-transfected with Myc-tagged CHIP and GFP-tagged A10-PABPN1 or A17-PABPN1; lysates precipitated with a Myc antibody 48 hr after transfection

binding (GFP-tagged A17-PABPN1)	binding (Myc-tagged CHIP (mouse))	Molecule
binds	–	CHIP of C2C12 myoblasts (from UniProt Q9WUD1 1-304) (enzyme)
–	binds	GFP-tagged A10-PABPN1 (protein, UniProt Q86U42 1-306) MAAAAAAAAAAGAAGGRGSGPGRRRHLVPGAGGEAGEGAPGGAGDYGNGLESEELEPEELLLEPEPEPEPEEEPPRPRAPPGAPGPGPGSGAPGSQEEEEEPGLVEGDPGDGAIEDPELEAIKARVREMEEEAEKLKELQNEVEKQMNMSPPPGNAGPVIMSIEEKMEADARSIYVGNVDYGATAEELEAHFHGCGSVNRVTILCDKFSGHPKGFAYIEFSDKESVRTSLALDESLFRGRQIKVIPKRTNRPGISTTDRGFPRARYRARTTNYNSSRSRFYSGFNSRPRGRVYRGRARATSWYSPY
–	binds	GFP-tagged A17-PABPN1 (protein, UniProt Q86U42 1-306) MAAAAAAAAAAAAAAAAAGAAGGRGSGPGRRRHLVPGAGGEAGEGAPGGAGDYGNGLESEELEPEELLLEPEPEPEPEEEPPRPRAPPGAPGPGPGSGAPGSQEEEEEPGLVEGDPGDGAIEDPELEAIKARVREMEEEAEKLKELQNEVEKQMNMSPPPGNAGPVIMSIEEKMEADARSIYVGNVDYGATAEELEAHFHGCGSVNRVTILCDKFSGHPKGFAYIEFSDKESVRTSLALDESLFRGRQIKVIPKRTNRPGISTTDRGFPRARYRARTTNYNSSRSRFYSGFNSRPRGRVYRGRARATSWYSPY
